Results are given in words; binding and its absence hold for the method and conditions named. In cells and extracts the contact can be indirect. Some entries that bind do so weakly or less than the wild type.
Experiments:
[1] = target: eIF4AIII (endogenous) (human (endogenous in HeLa)) (UniProt P38919); experiment: co-IP; IP with Thoc2 or eIF4A3 antibody from RNase A-treated lysates of HeLa cells transfected with pcDNA3-ZC3H18; western; binding buffer 20 mM Tris, 100 mM NaCl, 2 mM EDTA, 1 mM DTT, 1 mM PMSF, 0.1% Triton; overnight at 4°C, six washes
[2] = target: Thoc2 (human (endogenous in HeLa)) (UniProt Q8NI27); experiment: as above

The chains behind the UniProt entries cited, without tags or fusion partners.
UniProt P38919: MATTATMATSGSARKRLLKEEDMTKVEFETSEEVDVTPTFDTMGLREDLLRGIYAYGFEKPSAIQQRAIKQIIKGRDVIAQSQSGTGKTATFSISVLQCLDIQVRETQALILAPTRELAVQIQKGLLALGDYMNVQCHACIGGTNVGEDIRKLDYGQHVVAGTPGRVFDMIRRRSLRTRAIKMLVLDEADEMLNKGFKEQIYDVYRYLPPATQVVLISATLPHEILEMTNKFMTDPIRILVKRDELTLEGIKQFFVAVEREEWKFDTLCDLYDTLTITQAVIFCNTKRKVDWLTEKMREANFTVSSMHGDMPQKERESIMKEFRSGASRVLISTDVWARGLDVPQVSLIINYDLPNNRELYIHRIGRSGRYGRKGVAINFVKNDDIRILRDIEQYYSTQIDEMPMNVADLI
UniProt Q8NI27: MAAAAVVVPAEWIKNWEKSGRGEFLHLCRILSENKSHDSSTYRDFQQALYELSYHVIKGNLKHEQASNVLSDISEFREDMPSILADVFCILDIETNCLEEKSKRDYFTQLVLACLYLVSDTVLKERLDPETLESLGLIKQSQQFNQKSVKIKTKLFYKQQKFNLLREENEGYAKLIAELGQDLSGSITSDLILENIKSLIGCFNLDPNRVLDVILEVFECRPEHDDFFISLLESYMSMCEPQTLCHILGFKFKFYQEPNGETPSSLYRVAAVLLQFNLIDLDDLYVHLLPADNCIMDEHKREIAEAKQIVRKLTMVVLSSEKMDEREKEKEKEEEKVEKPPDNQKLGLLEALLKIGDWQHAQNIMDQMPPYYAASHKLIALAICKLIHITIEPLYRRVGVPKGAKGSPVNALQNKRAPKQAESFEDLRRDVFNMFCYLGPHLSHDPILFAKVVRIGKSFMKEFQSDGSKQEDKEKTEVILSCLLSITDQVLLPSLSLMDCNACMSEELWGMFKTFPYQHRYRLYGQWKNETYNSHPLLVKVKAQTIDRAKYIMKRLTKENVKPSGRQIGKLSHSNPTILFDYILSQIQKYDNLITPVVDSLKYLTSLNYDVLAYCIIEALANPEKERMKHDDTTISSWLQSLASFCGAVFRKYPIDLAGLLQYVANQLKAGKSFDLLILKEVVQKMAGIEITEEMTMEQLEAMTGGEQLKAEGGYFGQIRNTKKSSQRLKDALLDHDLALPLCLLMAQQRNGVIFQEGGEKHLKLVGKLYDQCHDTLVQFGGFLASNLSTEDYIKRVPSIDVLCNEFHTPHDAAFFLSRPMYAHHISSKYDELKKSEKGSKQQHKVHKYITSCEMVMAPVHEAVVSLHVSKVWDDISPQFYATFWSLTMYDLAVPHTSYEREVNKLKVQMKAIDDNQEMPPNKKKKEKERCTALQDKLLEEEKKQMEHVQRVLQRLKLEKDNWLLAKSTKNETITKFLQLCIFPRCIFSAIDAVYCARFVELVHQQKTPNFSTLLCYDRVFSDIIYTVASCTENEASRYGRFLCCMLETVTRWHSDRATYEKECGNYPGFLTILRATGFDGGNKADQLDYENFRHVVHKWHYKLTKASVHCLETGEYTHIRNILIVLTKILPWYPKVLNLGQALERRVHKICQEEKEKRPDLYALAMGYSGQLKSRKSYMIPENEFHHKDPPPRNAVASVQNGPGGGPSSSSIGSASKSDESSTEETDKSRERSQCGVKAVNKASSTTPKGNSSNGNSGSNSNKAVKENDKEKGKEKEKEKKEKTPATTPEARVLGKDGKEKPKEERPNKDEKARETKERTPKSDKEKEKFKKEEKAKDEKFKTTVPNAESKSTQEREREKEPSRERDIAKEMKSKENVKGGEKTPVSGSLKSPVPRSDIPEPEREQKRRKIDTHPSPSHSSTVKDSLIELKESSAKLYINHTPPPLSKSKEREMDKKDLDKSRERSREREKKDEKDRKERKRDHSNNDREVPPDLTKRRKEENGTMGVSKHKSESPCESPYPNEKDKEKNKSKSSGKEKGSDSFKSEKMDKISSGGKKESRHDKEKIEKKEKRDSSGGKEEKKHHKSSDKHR

B1: ZC3H18 (exogenous, from the pcDNA3-ZC3H18 plasmid) (protein, UniProt Q86VM9 1-953)
chain: MDVAESPERDPHSPEDEEQPQGLSDDDILRDSGSDQDLDGAGVRASDLEDEESAARGPSQEEEDNHSDEEDRASEPKSQDQDSEVNELSRGPTSSPCEEEGDEGEEDRTSDLRDEASSVTRELDEHELDYDEEVPEEPAPAVQEDEAEKAGAEDDEEKGEGTPREEGKAGVQSVGEKESLEAAKEKKKEDDDGEIDDGEIDDDDLEEGEVKDPSDRKVRPRPTCRFFMKGNCTWGMNCRFIHPGVNDKGNYSLITKADPFPPNGAPPLGPHPLMPANPWGGPVVDEILPPPPPEPPTESAWERGLRHAKEVLKKATIRKEQEPDFEEKRFTVTIGEDEREFDKENEVFRDWNSRIPRDVRDTVLEPYADPYYDYEIERFWRGGQYENFRVQYTETEPYHNYRERERERERENRQRERERERERDRERERRQRERERERERERDKERQRRKEEWERERAKRDEKDRQHRDRDREKEREKEKGKPKPRSPQPPSRQAEPPKKEAATTGPQVKRADEWKDPWRRSKSPKKKLGVSVSPSRARRRRKTSASSASASNSSRSSSRSSSYSGSGSSRSRSRSSSYSSYSSRSSRHSSFSGSRSRSRSFSSSPSPSPTPSPHRPSIRTKGEPAPPPGKAGEKSVKKPAPPPAPPQATKTTAPVPEPTKPGDPREARRKERPARTPPRRRTLSGSGSGSGSSYSGSSSRSRSLSVSSVSSVSSATSSSSSAHSVDSEDMYADLASPVSSASSRSPAPAQTRKEKGKSKKEDGVKEEKRKRDSSTQPPKSAKPPAGGKSSQQPSTPQQAPPGQPQQGTFVAHKEIKLTLLNKAADKGSRKRYEPSDKDRQSPPPAKRPNTSPDRGSRDRKSGGRLGSPKPERQRGQNSKAPAAPADRKRQLSPQSKSSSKVTSVPGKASDPGAASTKSGKASTLSRREELLKQLKAVEDAIARKRAKIPGKA
binding [1]: no binding
binding [2]: binds

Reference: PMC4066777
